For assay [1], the target named is SAMHD1 (endogenous) (human (endogenous in HL60 and THP-1)) (UniProt Q9Y3Z3). Description: co-IP; endogenous IP: AML cell (HL60, THP-1) lysates in RIPA buffer, 4 μg anti-NONO or anti-SAMHD1 antibody 3 h at 4 °C, protein A/G agarose, IgG as negative control; for Fig. 4H THP-1 cells with NONO silenced for 48 h.
Assay [2] addresses Myc-tagged SAMHD1 (UniProt Q9Y3Z3). Description: co-IP; exogenous IP: lysates (RIPA buffer) of cotransfected 293T cells incubated with anti-HA or anti-Myc agarose for 4 h at 4 °C or overnight, washed with RIPA buffer, western blotting. A general note: A western blot detects proteins with antibodies after separation by electrophoresis.
Assay [3] has the same target. Description: co-IP; 293T cells cotransfected with Myc-tagged SAMHD1 and HA-tagged DCAF1 with or without overexpression of Myc-tagged NONO for 24 h; co-IP and western blotting.
A further assay concerns the target T1, Myc-tagged NONO (UniProt Q15233).
T1 sequence: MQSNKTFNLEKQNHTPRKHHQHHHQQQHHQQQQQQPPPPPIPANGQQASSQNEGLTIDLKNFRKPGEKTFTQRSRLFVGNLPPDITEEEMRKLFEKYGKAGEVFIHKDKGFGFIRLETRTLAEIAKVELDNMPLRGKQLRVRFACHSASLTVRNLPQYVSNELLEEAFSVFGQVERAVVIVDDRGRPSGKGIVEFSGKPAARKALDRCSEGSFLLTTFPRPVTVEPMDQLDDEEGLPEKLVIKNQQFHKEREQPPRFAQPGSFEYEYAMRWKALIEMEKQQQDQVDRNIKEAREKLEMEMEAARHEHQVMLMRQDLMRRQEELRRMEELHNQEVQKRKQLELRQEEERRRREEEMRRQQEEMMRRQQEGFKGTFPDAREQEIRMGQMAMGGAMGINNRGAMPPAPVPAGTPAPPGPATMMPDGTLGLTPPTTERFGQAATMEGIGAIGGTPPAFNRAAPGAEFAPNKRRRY
Description: co-IP; exogenous IP: lysates (RIPA buffer) of cotransfected 293T cells incubated with anti-HA or anti-Myc agarose for 4 h at 4 °C or overnight, washed with RIPA buffer, western blotting.

Amino acid sequences for entries named in this document (tags omitted). A change or cut given only in a name is not applied to a line headed by its entry. Chains listed by the source or under a name are the forms on record and can include a tag or linker. Residues count along the entry.
UniProt Q9Y3Z3: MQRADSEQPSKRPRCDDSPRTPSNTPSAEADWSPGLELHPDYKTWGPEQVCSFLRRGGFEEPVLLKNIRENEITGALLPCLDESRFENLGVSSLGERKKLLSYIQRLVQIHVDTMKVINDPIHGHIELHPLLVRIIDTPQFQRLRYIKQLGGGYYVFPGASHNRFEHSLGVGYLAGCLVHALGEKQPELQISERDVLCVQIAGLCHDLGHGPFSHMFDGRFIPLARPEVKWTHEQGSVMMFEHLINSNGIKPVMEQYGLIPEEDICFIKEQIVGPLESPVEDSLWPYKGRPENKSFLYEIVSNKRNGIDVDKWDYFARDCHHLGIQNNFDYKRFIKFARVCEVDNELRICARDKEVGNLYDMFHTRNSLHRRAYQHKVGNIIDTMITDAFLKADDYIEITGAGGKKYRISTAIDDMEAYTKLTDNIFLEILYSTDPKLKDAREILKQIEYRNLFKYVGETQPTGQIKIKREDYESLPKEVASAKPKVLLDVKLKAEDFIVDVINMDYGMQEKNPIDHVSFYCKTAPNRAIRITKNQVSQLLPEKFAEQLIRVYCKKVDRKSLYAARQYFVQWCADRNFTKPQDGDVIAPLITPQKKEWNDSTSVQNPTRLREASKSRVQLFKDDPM
Myc-SAMHD1 truncation mutant, amino acids 115-562: residues 115-562 of Q9Y3Z3
SAMHD1 truncation mutant with deletion of amino acids 115 to 562 (Q9Y3Z3, form named): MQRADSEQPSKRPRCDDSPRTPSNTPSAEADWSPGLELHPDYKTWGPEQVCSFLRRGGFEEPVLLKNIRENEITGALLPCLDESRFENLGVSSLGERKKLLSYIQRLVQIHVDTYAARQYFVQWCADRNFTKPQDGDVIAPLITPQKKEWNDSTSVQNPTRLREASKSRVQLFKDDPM
UniProt Q9Y4B6: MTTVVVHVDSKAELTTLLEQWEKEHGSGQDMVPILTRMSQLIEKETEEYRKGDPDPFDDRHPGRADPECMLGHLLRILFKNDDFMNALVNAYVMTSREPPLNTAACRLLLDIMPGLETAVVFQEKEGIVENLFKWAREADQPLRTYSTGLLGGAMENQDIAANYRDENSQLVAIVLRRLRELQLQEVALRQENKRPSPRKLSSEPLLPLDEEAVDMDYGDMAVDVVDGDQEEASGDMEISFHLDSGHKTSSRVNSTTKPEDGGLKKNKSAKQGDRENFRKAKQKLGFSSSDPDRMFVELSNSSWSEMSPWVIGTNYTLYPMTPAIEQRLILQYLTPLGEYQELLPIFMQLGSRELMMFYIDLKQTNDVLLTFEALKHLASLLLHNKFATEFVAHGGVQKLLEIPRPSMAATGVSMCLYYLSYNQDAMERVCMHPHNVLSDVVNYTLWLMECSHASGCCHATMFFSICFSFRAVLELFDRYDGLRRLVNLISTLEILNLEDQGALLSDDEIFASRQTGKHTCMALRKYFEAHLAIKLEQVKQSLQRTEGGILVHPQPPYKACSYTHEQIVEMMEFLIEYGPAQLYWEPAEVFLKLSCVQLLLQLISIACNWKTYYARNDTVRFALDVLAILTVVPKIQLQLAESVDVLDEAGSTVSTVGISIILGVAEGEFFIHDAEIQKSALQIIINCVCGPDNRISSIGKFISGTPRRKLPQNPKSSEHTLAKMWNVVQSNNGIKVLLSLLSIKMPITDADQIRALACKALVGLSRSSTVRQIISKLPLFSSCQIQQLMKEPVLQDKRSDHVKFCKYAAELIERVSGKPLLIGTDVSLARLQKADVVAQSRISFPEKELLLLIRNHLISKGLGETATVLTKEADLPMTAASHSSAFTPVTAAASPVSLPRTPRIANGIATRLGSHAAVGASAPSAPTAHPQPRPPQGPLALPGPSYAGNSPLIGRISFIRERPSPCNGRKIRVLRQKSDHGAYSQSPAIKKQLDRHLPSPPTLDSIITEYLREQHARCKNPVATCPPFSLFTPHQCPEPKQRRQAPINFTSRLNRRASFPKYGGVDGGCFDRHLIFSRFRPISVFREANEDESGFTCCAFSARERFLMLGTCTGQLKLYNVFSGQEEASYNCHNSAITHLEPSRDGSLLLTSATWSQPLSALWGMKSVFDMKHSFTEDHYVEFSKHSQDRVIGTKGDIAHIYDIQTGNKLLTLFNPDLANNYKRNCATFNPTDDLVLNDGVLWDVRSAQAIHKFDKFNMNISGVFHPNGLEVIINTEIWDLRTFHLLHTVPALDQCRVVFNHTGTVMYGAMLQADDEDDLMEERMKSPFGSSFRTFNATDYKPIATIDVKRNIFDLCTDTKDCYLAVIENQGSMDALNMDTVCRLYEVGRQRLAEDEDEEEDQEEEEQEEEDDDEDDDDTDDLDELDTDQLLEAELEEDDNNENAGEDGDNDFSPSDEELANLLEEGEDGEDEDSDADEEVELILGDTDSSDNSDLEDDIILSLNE

Another assay concerns the target T2, GST-NONO (UniProt Q15233).
T2 sequence: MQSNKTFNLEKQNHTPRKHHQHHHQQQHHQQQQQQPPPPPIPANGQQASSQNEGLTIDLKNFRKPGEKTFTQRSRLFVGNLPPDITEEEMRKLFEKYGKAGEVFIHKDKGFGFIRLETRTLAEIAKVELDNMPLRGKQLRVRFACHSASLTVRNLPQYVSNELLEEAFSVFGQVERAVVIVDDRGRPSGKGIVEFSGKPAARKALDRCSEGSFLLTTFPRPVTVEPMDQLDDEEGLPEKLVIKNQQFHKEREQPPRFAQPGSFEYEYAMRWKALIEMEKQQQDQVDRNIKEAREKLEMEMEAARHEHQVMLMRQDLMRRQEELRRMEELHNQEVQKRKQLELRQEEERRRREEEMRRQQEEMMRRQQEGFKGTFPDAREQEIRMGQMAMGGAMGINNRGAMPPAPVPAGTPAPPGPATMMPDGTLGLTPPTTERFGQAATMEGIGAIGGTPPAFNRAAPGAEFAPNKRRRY
The assay is described as follows: pull-down; GST-NONO, GST-SAMHD1 or GST from E. coli immobilized on Glutathione-Sepharose beads, incubated with THP-1 whole-cell lysate 3 h or overnight, washed with RIPA buffer, western blotting; only the target purified.

Assay [4] concerns the target T3, NONO (endogenous) (human (endogenous in HL60 and THP-1)) (UniProt Q15233).
T3 sequence: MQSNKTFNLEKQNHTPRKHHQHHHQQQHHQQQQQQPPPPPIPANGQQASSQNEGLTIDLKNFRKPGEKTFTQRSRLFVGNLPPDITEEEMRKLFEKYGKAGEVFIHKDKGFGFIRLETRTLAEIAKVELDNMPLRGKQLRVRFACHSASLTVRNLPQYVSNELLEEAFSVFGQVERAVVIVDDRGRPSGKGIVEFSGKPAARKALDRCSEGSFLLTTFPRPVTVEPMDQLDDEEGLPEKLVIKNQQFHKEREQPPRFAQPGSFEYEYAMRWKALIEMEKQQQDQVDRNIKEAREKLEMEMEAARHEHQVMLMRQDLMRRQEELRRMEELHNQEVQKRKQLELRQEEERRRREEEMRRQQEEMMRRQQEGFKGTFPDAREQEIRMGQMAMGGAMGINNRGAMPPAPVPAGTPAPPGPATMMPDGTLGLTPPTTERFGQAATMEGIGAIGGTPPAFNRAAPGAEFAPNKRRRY
The assay is described as follows: co-IP; endogenous IP: AML cell (HL60, THP-1) lysates in RIPA buffer, 4 μg anti-NONO or anti-SAMHD1 antibody 3 h at 4 °C, protein A/G agarose, IgG as negative control; for Fig. 4H THP-1 cells with NONO silenced for 48 h.

For another assay, the target named is HA-tagged SAMHD1 (UniProt Q9Y3Z3). The assay is described as follows: co-IP; exogenous IP: lysates (RIPA buffer) of cotransfected 293T cells incubated with anti-HA or anti-Myc agarose for 4 h at 4 °C or overnight, washed with RIPA buffer, western blotting.
The target of assay [5] is Myc-tagged SAMHD1 (UniProt Q9Y3Z3). Description: co-IP; 293T cells cotransfected with Myc-tagged SAMHD1 and HA-tagged DCAF1 with or without overexpression of Myc-tagged NONO for 24 h; co-IP and western blotting. This is another data set of the same source.
In assay [6] the target is Myc-SAMHD1 truncation mutant, amino acids 115-562 (UniProt Q9Y3Z3). Description: co-IP; exogenous IP: lysates (RIPA buffer) of cotransfected 293T cells incubated with anti-HA or anti-Myc agarose for 4 h at 4 °C or overnight, washed with RIPA buffer, western blotting.
Assay [7] has as its target SAMHD1 truncation mutant with deletion of amino acids 115 to 562 (UniProt Q9Y3Z3). The assay is described as above.
Another assay deals with GST-SAMHD1 (UniProt Q9Y3Z3). The assay is described as follows: pull-down; GST-NONO, GST-SAMHD1 or GST from E. coli immobilized on Glutathione-Sepharose beads, incubated with THP-1 whole-cell lysate 3 h or overnight, washed with RIPA buffer, western blotting; only the target purified.

Results are given in words; binding and its absence hold for the method and conditions named. In cells and extracts the contact can be indirect. Some binding calls cover weakened binding; strength is not graded here. For part of these data: Where a sequence is shown, tags or fusion partners need not be part of it.

Regarding “DCAF1 (endogenous) (from UniProt Q9Y4B6 1-1507)”, the binding entry in assay [1] was “binds”.
Take “HA-tagged DCAF1 (from UniProt Q9Y4B6 1-1507)”: the binding result with Myc-tagged SAMHD1 [2] and with Myc-tagged SAMHD1 [3] was “binds” each time.
Take “HA-tagged SAMHD1 (from UniProt Q9Y3Z3 1-626)”: in the assay with Myc-tagged NONO, the binding result was “binds”.
On to “SAMHD1 (endogenous) (from UniProt Q9Y3Z3 1-626)”, for which the binding entry (with GST-NONO; in assay [4]) was “binds” throughout.

B1: Myc-tagged NONO (protein, UniProt Q15233 1-471)
chain: MQSNKTFNLEKQNHTPRKHHQHHHQQQHHQQQQQQPPPPPIPANGQQASSQNEGLTIDLKNFRKPGEKTFTQRSRLFVGNLPPDITEEEMRKLFEKYGKAGEVFIHKDKGFGFIRLETRTLAEIAKVELDNMPLRGKQLRVRFACHSASLTVRNLPQYVSNELLEEAFSVFGQVERAVVIVDDRGRPSGKGIVEFSGKPAARKALDRCSEGSFLLTTFPRPVTVEPMDQLDDEEGLPEKLVIKNQQFHKEREQPPRFAQPGSFEYEYAMRWKALIEMEKQQQDQVDRNIKEAREKLEMEMEAARHEHQVMLMRQDLMRRQEELRRMEELHNQEVQKRKQLELRQEEERRRREEEMRRQQEEMMRRQQEGFKGTFPDAREQEIRMGQMAMGGAMGINNRGAMPPAPVPAGTPAPPGPATMMPDGTLGLTPPTTERFGQAATMEGIGAIGGTPPAFNRAAPGAEFAPNKRRRY
For B1, the binding result in the assay with HA-tagged SAMHD1 and with Myc-tagged SAMHD1 [5] was “binds” each time.

B2: HA-tagged NONO (protein, UniProt Q15233 1-471)
chain: MQSNKTFNLEKQNHTPRKHHQHHHQQQHHQQQQQQPPPPPIPANGQQASSQNEGLTIDLKNFRKPGEKTFTQRSRLFVGNLPPDITEEEMRKLFEKYGKAGEVFIHKDKGFGFIRLETRTLAEIAKVELDNMPLRGKQLRVRFACHSASLTVRNLPQYVSNELLEEAFSVFGQVERAVVIVDDRGRPSGKGIVEFSGKPAARKALDRCSEGSFLLTTFPRPVTVEPMDQLDDEEGLPEKLVIKNQQFHKEREQPPRFAQPGSFEYEYAMRWKALIEMEKQQQDQVDRNIKEAREKLEMEMEAARHEHQVMLMRQDLMRRQEELRRMEELHNQEVQKRKQLELRQEEERRRREEEMRRQQEEMMRRQQEGFKGTFPDAREQEIRMGQMAMGGAMGINNRGAMPPAPVPAGTPAPPGPATMMPDGTLGLTPPTTERFGQAATMEGIGAIGGTPPAFNRAAPGAEFAPNKRRRY
For B2, the binding entry in the assay with Myc-tagged SAMHD1 [2] is on record as “binds”; in [6], “binds”; in [7], “no binding”.

B3: NONO (endogenous) (protein, UniProt Q15233 1-471)
chain: MQSNKTFNLEKQNHTPRKHHQHHHQQQHHQQQQQQPPPPPIPANGQQASSQNEGLTIDLKNFRKPGEKTFTQRSRLFVGNLPPDITEEEMRKLFEKYGKAGEVFIHKDKGFGFIRLETRTLAEIAKVELDNMPLRGKQLRVRFACHSASLTVRNLPQYVSNELLEEAFSVFGQVERAVVIVDDRGRPSGKGIVEFSGKPAARKALDRCSEGSFLLTTFPRPVTVEPMDQLDDEEGLPEKLVIKNQQFHKEREQPPRFAQPGSFEYEYAMRWKALIEMEKQQQDQVDRNIKEAREKLEMEMEAARHEHQVMLMRQDLMRRQEELRRMEELHNQEVQKRKQLELRQEEERRRREEEMRRQQEEMMRRQQEGFKGTFPDAREQEIRMGQMAMGGAMGINNRGAMPPAPVPAGTPAPPGPATMMPDGTLGLTPPTTERFGQAATMEGIGAIGGTPPAFNRAAPGAEFAPNKRRRY
In the case of B3, the binding entry in the assay with GST-SAMHD1 is “binds”.
